# Measured values: PubChem BioAssay AID504467 (National Center for Advancing Translational Sciences (NCATS), 2011)
# In all, about 330,000 compounds went through this assay and about 7,700 (2.3%) were called active. The inconclusive results got no clear call from the source; some entries with a clear call stand among them for comparison. Calls come from the whole dose curve; as a rule, active = well fitted inhibition curve with a large enough effect; inconclusive = small, poorly fitted or top-dose-only effect, or effect the other way; inactive = flat fitted curve, though single readings scatter. Potencies of inconclusive entries are doubtful fits and often do not repeat.
# Assay: qHTS screen for small molecules that inhibit ELG1-dependent DNA repair in human embryonic kidney (HEK293T) cells expressing luciferase-tagged ELG1; note: nearly all actives have a fitted effect of over 55% in size
# Settings: HEK293T ELG1-luciferase reporter, luminescence, 16 h, DNA damage induced by 5-fluorouridine; series mostly up to 46.1 µM
# Method in brief: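 Cells (2,000 per well) received 5-fluorouridine plus test compound or DMSO and were incubated 16 hr at 37 °C, 5% CO2. Luciferase activity was read by luminescence 30 min after ONE-Glo addition; signal suppression marked inhibition of damage-induced ELG1 function.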
# Potency is the fitted concentration of half-maximal effect.
row,Compound,Potency
1,Cn1nc(CC(=O)NC2CCCCCC2)c2ccccc2c1=O,"inconclusive: 8.2 µM [inhibitor, partial curve]"
2,O=C(O)CCc1ccc(-c2ccccc2)o1,"inconclusive: 18.4 µM [activator, partial curve, poor fit]"
3,Cc1c(C)c2cc(Cl)c(OCC(=O)NCCCn3ccnc3)cc2oc1=O,inactive
4,CC1CCc2[nH]c3ccc(C(=O)NCC4CCCO4)cc3c2C1 (centres undefined),"inconclusive: 9.2 µM [activator, partial curve]"
5,C=CCN1C(=O)C2(NC(=O)c3ccccc3N2)c2ccccc21 (centres undefined),inactive
6,CC1(C)Cc2ccccc2C(/C(=N/O)C(N)=O)=N1,"inconclusive: 3.26 µM [activator, partial curve, poor fit]"
7,CCOP(=O)(c1ccccc1)c1nc(-c2ccccc2Cl)oc1N1CCCCC1 (centres undefined),"inconclusive: 29.1 µM [inhibitor, single point]"
8,O=C(c1cccc(C(=O)N(c2ccccn2)C2CCCCC2)c1)N(c1ccccn1)C1CCCCC1,"inconclusive: 29.1 µM [inhibitor, single point]"
9,O=C(Nc1ccc(N2CCOCC2)cc1)c1ccc2ncsc2c1,"inconclusive: 2.59 µM [activator, partial curve]"
10,O=C(c1cccc(S(=O)(=O)N2CCc3ccccc32)c1)N1CCc2ccccc2C1,"inconclusive: 13 µM [inhibitor, partial curve, poor fit]"
11,Cc1ccc(CC2SC(=O)NC2=O)cc1Cl (centres undefined),inactive
12,COC1CCN(Cc2cn(Cc3ccccc3)nc2-c2cc3ccccc3o2)CC1,active: 20.6 µM
13,O=C(c1ccc(Br)cc1)N(Cc1ccco1)C1CCS(=O)(=O)C1 (centres undefined),inactive
14,COc1cc2c(cc1OC)C(C)N(C(=O)c1ccc(Br)o1)CC2 (centres undefined),"inconclusive: 25.9 µM [inhibitor, single point]"
15,Cn1ccc(NS(=O)(=O)c2cc(Br)ccc2Br)n1,inactive
16,COc1ccc(-c2noc(CN3CCCC(OCc4ccccn4)C3)n2)cc1 (centres undefined),"inconclusive: 32.6 µM [inhibitor, partial curve, poor fit]"
17,COc1ccc2c(c1OC)C(=O)N1C2SC(C)(C)[C@H]1C(=O)NCC(C)C (some centres undefined),inactive
18,COc1ccc(CCNc2oc(COc3ccc(F)cc3)nc2C#N)cc1,"inconclusive: 29.1 µM [inhibitor, single point]"
19,COc1ccc(/C(=C/Nc2cccc(Br)c2)C(C)=O)cc1OC,"inconclusive: 14.6 µM [inhibitor, partial curve]"
20,CCOc1ccc(NC(=S)NCCCc2ccccc2)cc1,inactive
21,O=C(NC1CCCC1)C(c1ccc(O)cc1)N(CC1CCCO1)C(=O)C1COc2ccccc2O1 (centres undefined),"inconclusive: 23.1 µM [inhibitor, single point]"
22,Cc1ccc(-c2n[nH]c(=S)n2C)cc1Cl,inactive
23,CN(Cc1ccc(C(C)(C)C)cc1)C(=O)C1CSC2(C)CCC(=O)N12 (centres undefined),"inconclusive: 35.5 µM [inhibitor, single point]"

# Structures shown so far that have an NH in an aromatic ring, in the order listed:
row,Compound,Potency
4,CC1CCc2[nH]c3ccc(C(=O)NCC4CCCO4)cc3c2C1 (centres undefined),"inconclusive: 9.2 µM [activator, partial curve]"
22,Cc1ccc(-c2n[nH]c(=S)n2C)cc1Cl,inactive

# Additional records follow.

row,Compound,Potency
1,Cc1csc(SCC(=O)Nc2nc3ccccc3s2)n1,"inconclusive: 10.3 µM [activator, single point]"
2,COc1ccc(/C=N/n2c(=O)[nH]c3c([nH]c4ccc(F)cc43)c2=O)cc1CN1CCCCC1,"inconclusive: 1.16 µM [activator, full curve, poor fit]"
3,CCOc1ccc(CCn2c(-c3ccco3)nc3ccccc3c2=O)cc1OCC,active: 9.2 µM
4,CC(=O)c1ccc(NC(=O)Nc2ccc3c(c2)nc(C)n3C)cc1,"inconclusive: 20.6 µM [activator, partial curve]"
5,O=C(NCc1ccco1)c1ccc(N2CCCC2=O)cc1,"inconclusive: 29.1 µM [activator, single point]"
6,CCCNC(=O)C(=O)Nc1ccc2c(c1)N(S(=O)(=O)c1cccs1)CCC2,active: 3.26 µM
7,CCOC(=O)c1c(C)nc2c(c1-c1ccc(Cl)cc1)C(=O)CC(C)(C)C2,"inconclusive: 29.1 µM [inhibitor, single point]"
8,COc1ccc2[nH]c3c(=O)n(CCCC(=O)NC4CCC(C)CC4)c(=S)[nH]c3c2c1 (centres undefined),"inconclusive: 23.1 µM [activator, partial curve, poor fit]"
9,COc1ccc(C(=O)N/C(=C/c2ccco2)C(=O)NCc2ccco2)cc1,"inconclusive: 18.3 µM [activator, partial curve, poor fit]"
10,O=C(NC1CCCCC1)C(c1cccs1)N(CCCN1CCOCC1)C(=O)c1ccc(-c2ccccc2)[nH]1 (centres undefined),"inconclusive: 29.1 µM [inhibitor, single point]"
11,CC(C)(C)[C@H]1CCC(=O)N([C@H](CSc2ccc(Br)cc2)Cc2ccccc2)CC1,inactive
12,O=C(NC(=S)NC1CCCCC1)c1ccc(F)cc1,"inconclusive: 20.6 µM [activator, partial curve]"
13,CC(=O)Nc1ccc(N=NN2CCOCC2)cc1,"inconclusive: 29.1 µM [activator, single point]"
14,Cc1ccc(-c2nc(CN(C)C(C3CC3)C3CC3)c(C)o2)cc1,"inconclusive: 13 µM [activator, partial curve, poor fit]"
15,CC(=O)c1ccc(OCCCC(=O)N2CCN(S(=O)(=O)c3ccc(C(C)C)cc3)CC2)cc1,"inconclusive: 18.3 µM [inhibitor, partial curve]"
16,Cn1c(/C(C#N)=C(\O)c2ccc(Cl)s2)nc2ccccc21,"inconclusive: 9.2 µM [activator, partial curve]"
17,CN(C)CCNC(=O)C(=O)NCC1CCCN1S(=O)(=O)c1cccs1 (centres undefined),inactive
18,CC(C)(C)OC(=O)NCCc1nnc(SCc2ccccc2Cl)o1,"inconclusive: 29.1 µM [inhibitor, single point]"
19,CCOC(=O)c1c(-c2ccc(C)cc2)csc1NC(=S)NC(=O)c1ccccc1,"inconclusive: 6.51 µM [inhibitor, single point]"
20,Cn1c(=O)n(C)c2cc(NC(=O)COc3ccccc3)ccc21,"inconclusive: 16.4 µM [activator, partial curve, poor fit]"
21,COc1cc(CCC(=O)OCC(=O)Nc2sccc2C(N)=O)cc(OC)c1OC,inactive
22,Cc1nc(SCC(=O)N2CCc3ccccc32)n[nH]1,"inconclusive: 20.6 µM [activator, partial curve]"
23,CC(C)C(=O)N1CCN(c2ccccc2NC(=O)COc2ccccc2)CC1,"inconclusive: 32.6 µM [inhibitor, single point]"

row,Compound,Potency
1,CC1(C)Cc2c(cnn2-c2ccccc2)C(NC(=O)c2ccc[n+]([O-])c2)C1 (centres undefined),inactive
2,CCOc1ccc(NC(=O)C2CCC(N3C(=O)C4CC=CCC4C3=O)CC2)cc1 (centres undefined),"inconclusive: 8.2 µM [inhibitor, partial curve]"
3,CC(C)Cn1c(CCCNC(=O)c2ccco2)nc2ccccc21,inactive
4,CCOC(=O)c1cnn(Cc2ccc(C)cc2)c1N,inactive
5,Cc1ccc(S(=O)(=O)NCC(=O)N(CC(=O)NCc2ccco2)Cc2ccc3c(c2)OCO3)cc1,inactive
6,O=C(CN1CCN(C(=O)c2ccco2)CC1)N1CCc2[nH]c3ccccc3c2C1,inactive
7,CCOC(=O)CNC(=O)C1(/C=C/c2ccccc2)CC(=O)N1c1ccc(C)cc1 (centres undefined),inactive
8,CCc1nnc(NC(=O)c2sc3nc4c(cc3c2N)CCCCCC4)s1,"inconclusive: 6.51 µM [activator, partial curve]"
9,Nn1c(SCc2cccc(Br)c2)nnc1-c1ccncc1,"inconclusive: 32.6 µM [inhibitor, single point]"
10,CCSc1nnc(NC(=O)CSc2nccn2-c2cccc(C)c2C)s1,"inconclusive: 25.9 µM [activator, partial curve, poor fit]"
11,CCc1ccc2c(c1)cc(CN(C(=S)Nc1cccc(C)c1)C1CC1)c1nnnn12,inactive
12,COc1ccc(NC(=S)NC(NC(=O)c2cccc(C)c2)C(Cl)(Cl)Cl)c([N+](=O)[O-])c1 (centres undefined),"inconclusive: 25.9 µM [inhibitor, partial curve, poor fit]"
13,CCOC(=O)N1CCC(NS(=O)(=O)c2cc(Br)cc3c2N(C(=O)CC)CC3)CC1,"inconclusive: 14.6 µM [inhibitor, partial curve, poor fit]"
14,Cc1ccccc1Nc1ncc(C#N)c(N)n1,"inconclusive: 18.3 µM [activator, partial curve, poor fit]"
15,Cc1cccc(C)c1OCC(=O)Nc1ccccc1C(=O)N1CCOCC1,inactive
16,CSCCC(NS(=O)(=O)c1ccc(Br)cc1)C(=O)OCC(=O)NC1CC1 (centres undefined),inactive
17,COc1ccc(CCNC(=O)C2CCCN(Cc3nc(-c4ccccc4C)oc3C)C2)cc1OC (centres undefined),"inconclusive: 35.5 µM [inhibitor, single point]"
18,O=C(CSC1=NCCS1)Nc1ccnc2ccccc12,"inconclusive: 2 µM [inhibitor, partial curve, poor fit]"
19,O=C(CN(C1CCCCC1)S(=O)(=O)c1ccc(F)cc1)Nc1ccc2c(c1)OCO2,"inconclusive: 20.6 µM [inhibitor, partial curve]"
20,N#CCc1ccc(NC(=O)Nc2cccc(Cl)c2)cc1,inactive
21,CC1CCN(C(=O)CCc2nc3cc(S(=O)(=O)N(C)C)ccc3n2C)CC1,"inconclusive: 29.1 µM [inhibitor, single point]"
22,O=C(NCCN1CCN(c2ccccc2)CC1)c1cccc(Br)c1,"inconclusive: 11.6 µM [inhibitor, partial curve]"
23,Cc1ccc[n+](/C(C(=S)NCc2ccco2)=C(/[O-])c2ccccc2Cl)c1,"inconclusive: 23.1 µM [activator, partial curve, poor fit]"
